Results: the supplement of paper PMC6414424
Where a name gives a salt, the structure may show the parent alone. ± gives the standard deviation of the averaged measurements. The list shows a part of the results.

Each compound was assayed on APPdp1-6 iPSC-derived neurons (assay: pThr231Tau/total Tau ratio Z-score vs DMSO vehicle wells; higher = more pThr231Tau relative to total Tau). Conditions: 5 µM; treatment time 5 days.

Row | Compound | pThr231Tau/total Tau ratio Z-score
1 | CN(C)CCCN1c2ccccc2CCc2ccccc21 [Prestw-72] | -1.48 ± 0.069
2 | NC(CO)C(=O)NNCc1ccc(O)c(O)c1O (stereo unspecified) [Prestw-938] | 3.53 ± 4.5
3 | Nc1nc2c(c(=O)[nH]1)N(C=O)C(CNc1ccc(C(=O)N[C@@H](CCC(=O)O)C(=O)O)cc1)CN2 (stereo partly specified) [Prestw-738] | -0.234 ± 1.4
4 | CN1CCC(OC(c2ccccc2)c2ccccc2)CC1 [Prestw-707] | 0.0273 ± 0.066
5 | O=C(Oc1cccc2cccnc12)c1ccccc1 [BENZOXIQUINE, antiinfective] | -3.21 ± 0.59
6 | Clc1ccc(Nc2nnc(Cc3ccncc3)c3ccccc23)cc1 [Prestw-1358] | -0.298 ± 0.069
7 | Cc1cccc(Nc2ccccc2C(=O)O)c1C [Prestw-54] | -0.281 ± 0.59
8 | C[n+]1ccccc1/C=N/O [Prestw-943] | 0.0209 ± 0.88
9 | O/N=C/c1cc[n+](COC[n+]2ccc(/C=N/O)cc2)cc1 | 0.791 ± 1.6
10 | CC(N)C(=O)OC(C)(C)Cc1ccc(Cl)cc1 (stereo unspecified) [Potent and selective serotonin reuptake inhibitor] | 0.0473 ± 0.66
11 | O=C1OC(CN2CCOCC2)CN1/N=C/c1ccc([N+](=O)[O-])o1 (stereo unspecified) [Prestw-764] | -0.0211 ± 1.1
12 | CC[n+]1c(-c2ccccc2)c2cc(N)ccc2c2ccc(N)cc21 | -5 ± 1.4
13 | CNCCCN1c2ccccc2CCc2ccccc21 [Prestw-343] | -0.686 ± 0.95
14 | O=C1NCCN1CCN1CCC(c2cn(-c3ccc(F)cc3)c3ccc(Cl)cc23)CC1 [Prestw-1341] | -0.859 ± 0.23
15 | O=C1CCC(N2C(=O)c3ccccc3C2=O)C(=O)N1 (stereo unspecified) [Prestw-192] | 0.295 ± 0.5
16 | CCOc1ccc(NC(=O)CC(C)O)cc1 (stereo unspecified) | 1.48 ± 0.76
17 | Clc1ccc(C(Cn2ccnc2)OCc2csc3c(Cl)cccc23)c(Cl)c1 (stereo unspecified) [Prestw-1045] | -0.541 ± 0.44
18 | CC(=O)OCC1=C(C(=O)O)N2C(=O)[C@@H](NC(=O)Cc3cccs3)[C@H]2SC1 [Prestw-719] | 0.0282 ± 0.86
19 | CCN(CC)CCNC(=O)COc1ccc(OC)cc1 [Prestw-215] | -0.295 ± 1.2
20 | CC1(C)S[C@@H]2[C@H](NC(=O)Cc3ccccc3)C(=O)N2[C@H]1C(=O)O [Prestw-1078] | 0.165 ± 1.3
21 | CCCCc1nc(Cl)c(CO)n1Cc1ccc(-c2ccccc2-c2nnn[nH]2)cc1 [Prestw-1433] | 0.218 ± 1.1

Row | Compound | pThr231Tau/total Tau ratio Z-score
22 | C=CCCCCCCCCC(=O)O [UNDECYLENIC ACID, antifungal] | 0.141 ± 1.4
23 | C#C[C@]1(OC(C)=O)CC[C@H]2[C@@H]3CCC4=C/C(=N/O)CC[C@@H]4[C@H]3CC[C@@]21CC [Prestw-1452] | -0.808 ± 0.65
24 | O=C(/C=C/C=C/c1ccc2c(c1)OCO2)N1CCCCC1 | 1.33 ± 1.7
25 | CCC(=O)OCC(=O)[C@@]1(OC(=O)CC)[C@@H](C)C[C@H]2[C@@H]3CCC4=CC(=O)C=C[C@]4(C)[C@@]3(Cl)[C@@H](O)C[C@@]21C [Prestw-855] | -0.558 ± 0.35
26 | CCN(CC)Cc1cc(Nc2ccnc3cc(Cl)ccc23)ccc1O [AMODIAQUINE DIHYDROCHLORIDE    Therap cat:  Antimalarial] | 0.585 ± 1.7
27 | CCN(CC)Cc1cc(Nc2ccnc3cc(Cl)ccc23)ccc1O [Prestw-309] | -0.00493 ± 0.41
28 | COc1ccccc1N1CCN(CCCNc2cc(=O)n(C)c(=O)n2C)CC1 [Prestw-905] | -0.218 ± 2.2
29 | Cn1c(=O)c2c(ncn2CCO)n(C)c1=O [Prestw-172] | -0.147 ± 0.45
30 | CC(C)NCC(O)c1cc(O)cc(O)c1 (stereo unspecified) [Prestw-505] | -0.286 ± 0.35
31 | O=C(O)CN(CCN(CC(=O)O)CC(=O)O)CCN(CC(=O)O)CC(=O)O [Prestw-941] | 0.104 ± 1.1
32 | C#CCN(C)CCCOc1ccc(Cl)cc1Cl [Prestw-344] | 1.33 ± 1.1
33 | CCCn1cnc2c1c(=O)n(CCCCC(C)=O)c(=O)n2C | 0.386 ± 0.34
34 | CN1CCCN=C1/C=C/c1cccs1 [PYRANTEL PAMOATE    Therap cat:  Anthelmintic (Nematodes)] | 0.294 ± 0.78
35 | CN1CCCN=C1/C=C/c1cccs1 [Prestw-212] | -0.217 ± 0.88
36 | CCC[C@@H]1C[C@@H](C(=O)N[C@@H]([C@H]2O[C@H](SC)[C@H](O)[C@@H](O)[C@H]2O)[C@@H](C)O)N(C)C1 [Prestw-302] | 0.114 ± 1.3
37 | C#C[C@]1(O)CC[C@H]2[C@@H]3CCC4=Cc5oncc5C[C@]4(C)[C@H]3CC[C@@]21C [Prestw-105] | -1.1 ± 0.024
38 | CO[C@H]1C[C@H](O[C@@H]2/C(C)=C/C[C@@H]3C[C@@H](C[C@]4(CC[C@H](C)[C@@H](C5CCCCC5)O4)O3)OC(=O)[C@@H]3C=C(C)/C(=N\O)[C@H]4OC/C(=C\C=C\[C@@H]2C)[C@]43O)O[C@@H](C)[C@@H]1O [SELAMECTIN, antiparasitic, antimite] | 0.3 ± 1.8
39 | CCOc1ccc(Cc2nccc3cc(OCC)c(OCC)cc23)cc1OCC [Prestw-830] | -1.02 ± 0.43
40 | O=C(Nc1ccc([N+](=O)[O-])cc1Cl)c1cc(Cl)ccc1O [Prestw-40] | -3.98 ± 0.19
41 | CC1CNc2c(cccc2S(=O)(=O)N[C@@H](CCCN=C(N)N)C(=O)N2CC[C@@H](C)C[C@@H]2C(=O)O)C1 (stereo partly specified) [Prestw-1228] | 0.14 ± 0.029
42 | CC12CC3CC(C)(C1)CC(N)(C3)C2 [Prestw-978] | -0.933 ± 1.4

As entered above.
Value for CC(C)NCC(O)c1cc(O)cc(O)c1 (stereo unspecified) [Prestw-505] under pThr231Tau/total Tau ratio Z-score: -0.286 ± 0.35
Value for CC1CNc2c(cccc2S(=O)(=O)N[C@@H](CCCN=C(N)N)C(=O)N2CC[C@@H](C)C[C@@H]2C(=O)O)C1 (stereo partly specified) [Prestw-1228] under pThr231Tau/total Tau ratio Z-score: 0.14 ± 0.029
Value for CCC[C@@H]1C[C@@H](C(=O)N[C@@H]([C@H]2O[C@H](SC)[C@H](O)[C@@H](O)[C@H]2O)[C@@H](C)O)N(C)C1 [Prestw-302] under pThr231Tau/total Tau ratio Z-score: 0.114 ± 1.3

(cont.)

Row | Compound | pThr231Tau/total Tau ratio Z-score
43 | CCN1CCCC1CNC(=O)c1cc(S(N)(=O)=O)ccc1OC (stereo unspecified) | 2.44 ± 3
44 | CCN1CCCC1CNC(=O)c1cc(S(N)(=O)=O)ccc1OC (stereo unspecified) [Prestw-56] | 1.37 ± 0.28
45 | CCCCc1oc2ccccc2c1C(=O)c1cc(I)c(OCCN(CC)CC)c(I)c1 [Prestw-409] | -1.01 ± 0.42
46 | O=C(O)c1cccnc1 [Prestw-881] | 1.38 ± 0.21
47 | Cc1cccc(N(C)C(=S)Oc2ccc3ccccc3c2)c1 [Prestw-70] | 2.27 ± 2.8
48 | O=c1[nH]c(=O)n([C@H]2C[C@H](O)[C@@H](CO)O2)cc1I [Prestw-18] | -0.0434 ± 0.55
49 | CC1(C)O[C@@H]2C[C@H]3[C@@H]4C[C@H](F)C5=CC(=O)CC[C@]5(C)[C@H]4[C@@H](O)C[C@]3(C)[C@]2(C(=O)CO)O1 [Prestw-645] | 0.365 ± 0.46
50 | CCC(=O)OCC(=O)[C@@]1(OC(=O)CC)[C@@H](C)C[C@H]2[C@@H]3CCC4=CC(=O)C=C[C@]4(C)[C@@]3(F)[C@@H](O)C[C@@]21C | 1.32 ± 1.4
51 | Cc1[nH]c(C)c(Cl)c(=O)c1Cl [CLOPIDOL, coccidiostat, antiplatelet] | -2.54 ± 1.7
52 | O=C1N=C(O)CN1/N=C/c1ccc(-c2ccc([N+](=O)[O-])cc2)o1 [Prestw-291] | -0.549 ± 0.52
53 | NNC(=O)c1ccncc1 [Prestw-161] | -1.13 ± 0.75
54 | Cc1c(Nc2ncccc2C(=O)O)cccc1C(F)(F)F [Prestw-744] | 0.438 ± 0.1
55 | CC[C@H](c1ccc(O)cc1)[C@@H](CC)c1ccc(O)cc1 [Prestw-699] | -0.703 ± 0.94
56 | CC(=O)OCC(=O)[C@@]1(O)CC[C@H]2[C@@H]3CCC4=CC(=O)C=C[C@]4(C)[C@H]3[C@@H](O)C[C@@]21C [PREDNISOLONE ACETATE    Therap cat:  Glucocorticoid] | 1.6 ± 0.65
57 | C[C@]12CCC(=O)C=C1CC[C@@H]1[C@@H]2[C@@H](O)C[C@@]2(C)[C@H]1CC[C@]2(O)C(=O)COP(=O)(O)O | -0.767 ± 1.5
58 | CC1(C)O[C@@H]2C[C@H]3[C@@H]4C[C@H](F)C5=CC(=O)C=C[C@]5(C)[C@H]4[C@@H](O)C[C@]3(C)[C@]2(C(=O)CO)O1 [Prestw-643] | -1.22 ± 0.82
59 | C[C@H](CS)C(=O)N1CCC[C@H]1C(=O)O [Prestw-19] | 0.928 ± 1.8
60 | CN(Cc1cc(Br)cc(Br)c1N)C1CCCCC1 [Prestw-1246] | -0.273 ± 0.14
61 | NCCc1ccc(O)c(O)c1 [Prestw-1398] | 0.536 ± 0.44
62 | COc1ccnc(C[S+]([O-])c2nc3ccc(OC(F)F)cc3[nH]2)c1OC (stereo unspecified) | 0.611 ± 0.48
63 | CC(C)C(=O)c1c(C(C)C)nn2ccccc12 [Prestw-1286] | 0.828 ± 0.21

Row | Compound | pThr231Tau/total Tau ratio Z-score
64 | C[N+](C)(C)C[C@H](O)CC(=O)[O-] | 1.95 ± 2.7
65 | OC(CCN1CCCC1)(c1ccccc1)C1CCCCC1 (stereo unspecified) [Prestw-844] | 0.203 ± 0.7
66 | CC(C)NCC(O)COc1cccc2[nH]ccc12 (stereo unspecified) [Prestw-90] | 1.48 ± 1.3
67 | CC(CN(C)C)CN1c2ccccc2CCc2ccccc21 (stereo unspecified) [Prestw-806] | -1.87 ± 0.7
68 | C=C1C(=O)O[C@H]2[C@H]1CC/C(C)=C/CC[C@@]1(C)O[C@@H]21 [Prestw-550] | -0.245 ± 0.5
69 | CCCCOc1ccc(C(=O)CCN2CCCCC2)cc1 [Prestw-264] | -1.14 ± 0.17
70 | CC(C)(C)CC(C)(C)c1ccc(OCCOCC[N+](C)(C)Cc2ccccc2)cc1 [Prestw-708] | -3.55 ± 1.1
71 | Cn1nnc2c(C(N)=O)ncn2c1=O [Prestw-1183] | 0.0815 ± 0.58
72 | CC(C)(C)NC(=O)[C@H]1CC[C@H]2[C@@H]3CC[C@H]4NC(=O)C=C[C@]4(C)[C@H]3CC[C@]12C [Prestw-717] | 0.258 ± 0.81
73 | Nc1nc(N)c2nc(-c3ccccc3)c(N)nc2n1 [Prestw-34] | -0.393 ± 0.8
74 | OCCN1CCN(CC/C=C2/c3ccccc3Sc3ccc(Cl)cc32)CC1 [Prestw-998] | -0.12 ± 0.62
75 | Nc1nc(/C(=C/CC(=O)O)C(=O)N[C@@H]2C(=O)N3C(C(=O)O)=CCS[C@H]23)cs1 [CEFTIBUTEN, antibacterial] | -0.595 ± 0.35
76 | CCc1cc(Cl)c(OC)c(C(=O)NC[C@@H]2CCCN2CC)c1O [Prestw-932] | -1.15 ± 0.6
77 | CN(C)CCOC(=O)C(c1ccccc1)C1(O)CCCC1 (stereo unspecified) [Prestw-1095] | 0.797 ± 0.89
78 | Nc1[nH]c(=O)ncc1F [Prestw-934] | 0.772 ± 1.1
79 | CCC(=O)O[C@]1(C(=O)SCF)[C@H](C)C[C@H]2[C@@H]3C[C@H](F)C4=CC(=O)C=C[C@]4(C)[C@@]3(F)[C@@H](O)C[C@@]21C [Prestw-997] | -0.548 ± 0.27
80 | CC(=O)Nc1ccc(S(=O)(=O)c2ccc(NC(C)=O)cc2)cc1 [ACEDAPSONE, antimalarial, leprostatic] | -0.284 ± 0.25
81 | CC[N+](C)(CC)CCC[n+]1c(-c2ccccc2)c2cc(N)ccc2c2ccc(N)cc21 [Prestw-792] | 0.373 ± 0.018
